Assay [1] concerns the target Flag-STAT3 (signal transducer and activator of transcription 3), wild type (human) (UniProt P40763). As to the kind of experiment: co-IP; 293T cells transfected with the indicated tagged vectors; whole-cell lysates precipitated with Flag, HA or Myc antibody on Protein A/G beads, Western blot; in some panels IL6 (10 ng mL^-1, 2 h) before harvest. In general terms: In western blotting, separated proteins are transferred to a membrane and probed.

The chains behind the UniProt entries cited, without tags or fusion partners. Where a name states a change or a piece, a line headed by the entry shows the natural chain unless it says otherwise. A line that says so, or that is headed by a name, gives the form on record, which may keep a tag or linker.
UniProt P40763: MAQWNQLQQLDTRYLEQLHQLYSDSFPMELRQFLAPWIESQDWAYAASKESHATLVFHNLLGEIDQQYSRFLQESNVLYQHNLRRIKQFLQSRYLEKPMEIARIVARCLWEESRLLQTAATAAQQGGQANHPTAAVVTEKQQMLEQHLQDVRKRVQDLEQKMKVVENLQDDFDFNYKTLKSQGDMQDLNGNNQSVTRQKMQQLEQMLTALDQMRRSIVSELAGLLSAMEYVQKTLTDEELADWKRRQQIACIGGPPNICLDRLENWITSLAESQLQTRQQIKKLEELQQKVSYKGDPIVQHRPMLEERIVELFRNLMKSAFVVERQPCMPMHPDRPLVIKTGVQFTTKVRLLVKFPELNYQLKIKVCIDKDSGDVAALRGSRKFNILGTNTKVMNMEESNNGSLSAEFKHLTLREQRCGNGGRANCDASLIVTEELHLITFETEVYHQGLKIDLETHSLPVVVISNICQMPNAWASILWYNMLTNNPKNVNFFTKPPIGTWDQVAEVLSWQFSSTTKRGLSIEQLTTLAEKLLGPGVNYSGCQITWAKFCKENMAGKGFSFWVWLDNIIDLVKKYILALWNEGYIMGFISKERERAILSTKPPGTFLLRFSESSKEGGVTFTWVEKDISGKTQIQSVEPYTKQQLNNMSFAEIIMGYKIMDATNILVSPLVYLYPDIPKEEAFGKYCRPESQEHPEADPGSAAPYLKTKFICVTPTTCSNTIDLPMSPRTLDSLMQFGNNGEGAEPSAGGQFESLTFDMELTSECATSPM
STAT3 K4Q (SH2 domain acetylation mimetic) (P40763, form named): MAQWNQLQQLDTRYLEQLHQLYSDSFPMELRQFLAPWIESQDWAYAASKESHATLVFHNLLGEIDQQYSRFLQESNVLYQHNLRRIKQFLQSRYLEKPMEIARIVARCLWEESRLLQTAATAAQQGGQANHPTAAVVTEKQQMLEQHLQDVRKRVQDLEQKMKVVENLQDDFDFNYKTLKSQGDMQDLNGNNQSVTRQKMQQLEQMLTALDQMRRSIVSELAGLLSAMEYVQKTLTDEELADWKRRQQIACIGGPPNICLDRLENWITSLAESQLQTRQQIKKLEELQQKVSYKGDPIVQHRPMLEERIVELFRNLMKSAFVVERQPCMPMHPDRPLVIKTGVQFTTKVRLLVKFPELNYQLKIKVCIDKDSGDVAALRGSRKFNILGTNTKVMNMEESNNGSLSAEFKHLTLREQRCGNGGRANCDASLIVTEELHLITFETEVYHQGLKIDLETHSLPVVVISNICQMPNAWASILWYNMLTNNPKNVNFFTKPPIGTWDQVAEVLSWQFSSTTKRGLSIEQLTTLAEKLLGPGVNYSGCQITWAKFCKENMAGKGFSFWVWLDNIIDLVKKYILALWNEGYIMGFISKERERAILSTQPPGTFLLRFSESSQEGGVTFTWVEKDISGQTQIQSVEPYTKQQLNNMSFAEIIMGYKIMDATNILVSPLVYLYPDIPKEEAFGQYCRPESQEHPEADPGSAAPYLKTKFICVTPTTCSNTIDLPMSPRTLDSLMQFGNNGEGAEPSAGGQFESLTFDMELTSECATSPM
STAT3 K4R (SH2 domain non-acetylation mutant) (P40763, form named): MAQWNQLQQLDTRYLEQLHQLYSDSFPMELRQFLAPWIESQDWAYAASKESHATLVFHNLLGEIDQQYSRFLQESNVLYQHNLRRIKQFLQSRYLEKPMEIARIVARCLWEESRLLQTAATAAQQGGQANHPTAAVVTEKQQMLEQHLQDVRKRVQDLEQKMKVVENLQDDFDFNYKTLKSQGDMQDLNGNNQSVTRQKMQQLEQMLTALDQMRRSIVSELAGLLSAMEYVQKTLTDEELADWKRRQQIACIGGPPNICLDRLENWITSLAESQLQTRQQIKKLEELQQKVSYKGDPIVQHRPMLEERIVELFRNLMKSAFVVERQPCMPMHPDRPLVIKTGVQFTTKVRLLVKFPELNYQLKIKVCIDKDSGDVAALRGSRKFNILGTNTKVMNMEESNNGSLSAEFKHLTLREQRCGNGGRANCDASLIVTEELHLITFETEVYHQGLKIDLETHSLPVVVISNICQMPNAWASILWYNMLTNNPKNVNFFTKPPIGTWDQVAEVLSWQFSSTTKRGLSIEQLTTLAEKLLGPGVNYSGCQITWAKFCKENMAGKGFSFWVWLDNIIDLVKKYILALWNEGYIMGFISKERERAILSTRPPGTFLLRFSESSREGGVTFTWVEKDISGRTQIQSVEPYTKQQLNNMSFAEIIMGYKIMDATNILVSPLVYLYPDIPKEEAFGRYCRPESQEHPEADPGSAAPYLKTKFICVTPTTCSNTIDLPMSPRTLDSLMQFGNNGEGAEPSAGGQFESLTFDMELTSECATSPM
STAT3 YS2D (phosphorylation mimic, Y705 and S727 to aspartate) (P40763, form named): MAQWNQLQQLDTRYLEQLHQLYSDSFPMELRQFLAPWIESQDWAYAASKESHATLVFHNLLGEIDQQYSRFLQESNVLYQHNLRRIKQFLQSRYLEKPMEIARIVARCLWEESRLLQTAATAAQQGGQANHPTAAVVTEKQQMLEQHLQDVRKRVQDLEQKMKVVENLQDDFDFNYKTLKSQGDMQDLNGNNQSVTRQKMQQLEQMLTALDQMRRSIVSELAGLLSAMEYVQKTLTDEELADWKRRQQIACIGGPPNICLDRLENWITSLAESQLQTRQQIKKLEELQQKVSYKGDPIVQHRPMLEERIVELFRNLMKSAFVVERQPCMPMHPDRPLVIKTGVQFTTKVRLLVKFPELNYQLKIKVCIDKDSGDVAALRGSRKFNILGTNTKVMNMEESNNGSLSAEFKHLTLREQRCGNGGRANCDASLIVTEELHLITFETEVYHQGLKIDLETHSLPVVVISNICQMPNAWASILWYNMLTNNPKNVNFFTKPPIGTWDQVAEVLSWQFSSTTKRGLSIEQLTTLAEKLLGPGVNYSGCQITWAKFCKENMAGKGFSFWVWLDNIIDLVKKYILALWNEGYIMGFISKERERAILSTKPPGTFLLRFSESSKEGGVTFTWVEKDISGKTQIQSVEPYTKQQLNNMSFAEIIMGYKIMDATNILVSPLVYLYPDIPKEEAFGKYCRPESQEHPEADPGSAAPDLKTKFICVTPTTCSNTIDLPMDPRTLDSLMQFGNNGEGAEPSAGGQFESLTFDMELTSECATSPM

Assay [2] deals with endogenous STAT3 of GBM cells (human (endogenous in U87 and U251)), P40763. As to the kind of experiment: co-IP; GBM cells (U87, U251) with stable ectopic SHF-mCherry or control; endogenous proteins or infected Flag-STAT3; whole-cell lysates, Protein A/G beads, Western blot; in one panel p300 siRNA. Particulars: remark: other sources report otherwise.
In assay [3] the target is STAT3 K4Q (SH2 domain acetylation mimetic) (human) (UniProt P40763). The assay is described as follows: co-IP; 293T cells transfected with the indicated tagged vectors; whole-cell lysates precipitated with Flag, HA or Myc antibody on Protein A/G beads, Western blot; in some panels IL6 (10 ng mL^-1, 2 h) before harvest.
Assay [4] has as its target STAT3 K4R (SH2 domain non-acetylation mutant) (human) (UniProt P40763). The assay is described as above.
The target of assay [5] is STAT3 YS2A (Y705A and S727A double non-phosphorylation mutant) (human) (UniProt P40763). Described as above.
Assay [6] deals with STAT3 YS2D (phosphorylation mimic, Y705 and S727 to aspartate) (human) (UniProt P40763). Described as above.
The target of assay [7] is STAT3-EGFP (FRET fusion) (human) (UniProt P40763). The assay is described as follows: FRET or BRET; spectral FRET in U251 cells, EGFP donor (488 nm) and DsRed acceptor (565 nm), imaged after 24 h; for the inhibition ectopic SHF-expressing stable U251 cells.
The target of assay [8] is STAT3-nEGFP (BiFC fusion) (human) (UniProt P40763). As to the kind of experiment: split reporter; BiFC in U251 cells transfected with STAT3-nEGFP and STAT3-cEGFP or SHF-cEGFP for 16 h, fixed, confocal microscope.
Assay [9] addresses Flag-STAT3, ectopic in GBM cells (human) (UniProt P40763). The assay is described as follows: co-IP; GBM cells (U87, U251) with stable ectopic SHF-mCherry or control; endogenous proteins or infected Flag-STAT3; whole-cell lysates, Protein A/G beads, Western blot; in one panel p300 siRNA.
In assay [10] the target is endogenous STAT1 of GBM cells (human (endogenous in U87 and U251)) (UniProt P42224). Described as above.
The target in assay [11] is endogenous STAT3 of GBM cells (human (endogenous in U87 and U251)) (UniProt P40763). The assay is described as above.

These are yes or no findings as the source states them, for the method shown. In cells and extracts the contact can be indirect. Some binding calls cover weakened binding; strength is not graded here. For some of these results: Where a sequence is shown, tags or fusion partners need not be part of it.

B1: SHF SH2 construct (SH2) (domain or fragment, UniProt Q7M4L6 323-418)
chain: WYHGAISRTDAENLLRLCKEASYLVRNSETSKNDFSLSLKSSQGFMHMKLSRTKEHKYVLGQNSPPFSSVPEIVHHYASRKLPIKGAEHMSLLYPV
As to B1, in assay [1], the binding entry is given as “binds”.

B2: endogenous STAT1 of GBM cells, P42224 1-750 (protein)
chain: MSQWYELQQLDSKFLEQVHQLYDDSFPMEIRQYLAQWLEKQDWEHAANDVSFATIRFHDLLSQLDDQYSRFSLENNFLLQHNIRKSKRNLQDNFQEDPIQMSMIIYSCLKEERKILENAQRFNQAQSGNIQSTVMLDKQKELDSKVRNVKDKVMCIEHEIKSLEDLQDEYDFKCKTLQNREHETNGVAKSDQKQEQLLLKKMYLMLDNKRKEVVHKIIELLNVTELTQNALINDELVEWKRRQQSACIGGPPNACLDQLQNWFTIVAESLQQVRQQLKKLEELEQKYTYEHDPITKNKQVLWDRTFSLFQQLIQSSFVVERQPCMPTHPQRPLVLKTGVQFTVKLRLLVKLQELNYNLKVKVLFDKDVNERNTVKGFRKFNILGTHTKVMNMEESTNGSLAAEFRHLQLKEQKNAGTRTNEGPLIVTEELHSLSFETQLCQPGLVIDLETTSLPVVVISNVSQLPSGWASILWYNMLVAEPRNLSFFLTPPCARWAQLSEVLSWQFSSVTKRGLNVDQLNMLGEKLLGPNASPDGLIPWTRFCKENINDKNFPFWLWIESILELIKKHLLPLWNDGCIMGFISKERERALLKDQQPGTFLLRFSESSREGAITFTWVERSQNGGEPDFHAVEPYTKKELSAVTFPDIIRNYKVMAAENIPENPLKYLYPNIDKDHAFGKYYSRPKEAPEPMELDGPKGTGYIKTELISVSEVHPSRLQTTDNLLPMSPEEFDEVSRIVGSVEFDSMMNTV
Take B2: in [2], the binding entry is recorded as “no binding”.

B3: HA-SHF (SH2 domain-containing adapter protein F) (protein, UniProt Q7M4L6 1-423)
chain: MQQEGGPVRSAPCRTGTLEGSRQGSPGHRKRASPKGSLSSAQPHSWMLTPSPLNSHCAHREPISSSPQPVANGPKQKKKSNWRSTTRLRIIRLRDRLEPRPLAILEDYADPFDVQETGEGSAGASGAPEKVPENDGYMEPYEAQKMMAEIRGSKETATQPLPLYDTPYEPEEDGATAEGEGAPWPRESRLPEDDERPPEEYDQPWEWKKERISKAFAVDIKVIKDLPWPPPVGQLDSSPSLPDGDRDISGPASPLPEPSLEDSSAQFEGPEKSCLSPGREEKGRLPPRLSAGNPKSAKPLSMEPSSPLGEWTDPALPLENQVWYHGAISRTDAENLLRLCKEASYLVRNSETSKNDFSLSLKSSQGFMHMKLSRTKEHKYVLGQNSPPFSSVPEIVHHYASRKLPIKGAEHMSLLYPVAIRTL
On to B3, for which the binding result in assay [1] is “binds”; in assay [3] it was “binds”; in assay [4], “binds weakly”; in [5], “binds”; in [6], “binds”.

B4: SHF-DsRed (FRET fusion) (protein, UniProt Q7M4L6 1-423)
chain: B3 chain
For the molecule B4, the binding result in assay [7] is on record as “binds”.

B5: SHF-cEGFP (BiFC fusion) (protein, UniProt Q7M4L6 1-423)
chain: B3 chain
Consider B5, for which, in assay [8], the binding entry was “binds”.

B6: SHF-mCherry (ectopic SHF in GBM cells) (protein, UniProt Q7M4L6 1-423)
chain: B3 chain
Turning to B6, the binding result in assay [7], in assay [9], in [10] and in assay [11] was “binds” in each case.

Values taken from publication PMC9475553, “SHF Acts as a Novel Tumor Suppressor in Glioblastoma Multiforme by Disrupting STAT3 Dimerization” (Advanced Science, 2022).
